# Measured values published in the supplement of paper PMC12067093, “Discovery and optimisation of a covalent ligand for TRIM25 and its application to targeted protein ubiquitination” (Chemical Science, 2025).
# This is one part of the list.
# Compound: CC1Cc2ccccc2N1C(=O)C1CCCN(C1)C(=O)CCl (mixture of isomers) [TRIM25 ligand 11 (diastereomer mixture)]
# Assay: probe-labelled cysteine peptide fold change vs DMSO (competition) (log2 fold change); higher = less target engagement (more negative = stronger competition)
# Conditions: THP-1, incubation time: 4 h
# 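Note: competitive chemoproteomic profiling in live THP-1 cells with an iodoacetamide desthiobiotin (IA-DTB) probe, comparing probe-labelled peptide intensities in compound-treated cells against DMSO-treated controls.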
Target,probe-labelled cysteine peptide fold change (10 µM),probe-labelled cysteine peptide fold change (50 µM)
CTSZ_Q9UBR2_33_RGQTCYRPLR (UniProt Q9UBR2),0.0804,0.00722
CTR9_Q6PD62_309_VQHLALHAFHNTEVEAMQAESCYQLAR (UniProt Q6PD62),0.335,0.0964
CTSO_P43234_204_AQNGLCHYFSGSHSGFSIK (UniProt P43234),0.363,-0.212
DARS2_Q6PI48_54_TNTCGELR (UniProt Q6PI48),0.108,0.189
CYTH4_Q9UIA0_49_LKDEIADVFAQIDCFESAEESR (UniProt Q9UIA0),0.1,0.321
DCTD_P32321_83_LDTKYPYVCHAELNAIMNK (UniProt P32321),-0.364,-0.419
DCAF11_Q8TEB1_460_FSPIHSTGQQFIYSGCSTGK (UniProt Q8TEB1),0.245,-0.00752
DARS_P14868_349_FLEPTLRLEYCEALAMLR (UniProt P14868),-0.495,-0.308
DCAF1_Q9Y4B6_967_ERPSPCNGR (UniProt Q9Y4B6),-0.0141,-0.144
CTR9_Q6PD62_363_ENASQCFEK (UniProt Q6PD62),0.0576,0.18
CUL2_Q13617_282_MVADHLQFLHAECHNIIR (UniProt Q13617),-0.0719,-0.0219
DCLRE1C_Q96SD1_359_VVEILKPLCR (UniProt Q96SD1),-0.0193,-0.0751
DAP3_P51398_356_EFESCIQYYLENNWLQHEK (UniProt P51398),-0.224,-0.224
DCTN1_Q14203_81_YFTCDEGHGIFVR (UniProt Q14203),0.00313,0.0132
DAZAP1_Q96EP5_85_NIDPKPCTPR (UniProt Q96EP5),-0.189,-0.0218
CTPS2_Q9NRF8_216_GLGLSPDLIVCR (UniProt Q9NRF8),0.357,0.0413
CTSC_P53634_448_RGTDECAIESIAVAATPIPK (UniProt P53634),-0.0605,-0.0793
DCAF13_Q9NV06_342_YIMCGSDEMNIR (UniProt Q9NV06),0.0404,0.207
CXorf56_Q9H5V9_69_FCNTEDEETMYLR (UniProt Q9H5V9),-0.146,-0.104
DAZAP1_Q96EP5_63_FKDPNCVGTVLASRPHTLDGR (UniProt Q96EP5),0.0212,0.0487
DCTN1_Q14203_677_YEHALSQCSVDVYKK (UniProt Q14203),-0.0153,0.149
CXXC1_Q9P0U4_38_KPDINCFMIGCDNCNEWFHGDCIR (UniProt Q9P0U4),-0.196,-0.0436

# Laid out differently: entries from further up.
Target	probe-labelled cysteine peptide fold change (10 µM)	probe-labelled cysteine peptide fold change (50 µM)
CTR9_Q6PD62_363_ENASQCFEK (UniProt Q6PD62)	0.0576	0.18
CUL2_Q13617_282_MVADHLQFLHAECHNIIR (UniProt Q13617)	-0.0719	-0.0219

# Next entries follow:

Target,probe-labelled cysteine peptide fold change (10 µM),probe-labelled cysteine peptide fold change (50 µM)
CWF19L1_Q69YN2_87_YFQDADGCELAENITYLGR (UniProt Q69YN2),0.3,0.372
CTSZ_Q9UBR2_179_ECHAIR (UniProt Q9UBR2),-0.116,0.567
DARS2_Q6PI48_590_LICLVTGSPSIR (UniProt Q6PI48),0.223,0.379
CXorf38_Q8TB03_300_LDSLCLHQK (UniProt Q8TB03),-0.0133,-0.0165
CUL7_Q14999_60_RGDEGDGGSGQVDCK (UniProt Q14999),-0.0193,-0.166
CYFIP1_Q7L576_519_TVCDWETGHEPFNDPALR (UniProt Q7L576),0.0504,0.114
CYFIP1_Q7L576_918_NFVGPPHFQVICR (UniProt Q7L576),0.00496,0.184
DCTD_P32321_83_YPYVCHAELNAIMNK (UniProt P32321),0.113,0.15
CTSS_P25774_224_AATCSK (UniProt P25774),-0.0306,-0.288
CUL4A_Q13619_289_VITYLDHSTQKPLIACVEK (UniProt Q13619),-0.36,-0.171
DCAF11_Q8TEB1_288_EVLGGANDGCLYVFDR (UniProt Q8TEB1),0.147,0.201
CTU1_Q7Z7A3_144_SCCTFCGVLR (UniProt Q7Z7A3),-0.0921,-0.206
DCK_P27707_9_SCPSFSASSEGTR (UniProt P27707),0.124,-0.0554
DARS2_Q6PI48_202_EYLCNLHGFVDIETPTLFK (UniProt Q6PI48),0.287,0.216
CTSD_P07339_117_LLDIACWIHHK (UniProt P07339),-0.0531,0.0905
CYBB_P04839_537_IGVFLCGPEALAETLSK (UniProt P04839),0.273,-0.00485
CUL1_Q13616_355_CGEAALNDPK (UniProt Q13616),-0.0368,-0.0819
DCP2_Q8IU60_391_KLQDNFETDAVYDLPSSSEDQLLEHAEGQPVACNGHCK (UniProt Q8IU60),-0.209,-0.464
DARS_P14868_259_QMCICADFEK (UniProt P14868),0.098,0.0803
CWF19L1_Q69YN2_288_QILAPVEESACQFFFDLNEK (UniProt Q69YN2),0.325,0.0173
CUL4A_Q13619_633_TLQSLACGK (UniProt Q13619),0.00787,-0.195
DCAF1_Q9Y4B6_521_HTCMALR (UniProt Q9Y4B6),0.139,0.132

Target,probe-labelled cysteine peptide fold change (10 µM),probe-labelled cysteine peptide fold change (50 µM)
CTSS_P25774_213_CQYDSK (UniProt P25774),0.00868,-0.148
DARS2_Q6PI48_371_AICIPEGAK (UniProt Q6PI48),-0.143,-0.0762
DAG1_Q14118_713_ATSITVTGSGSCR (UniProt Q14118),-0.0908,-0.0621
CUL1_Q13616_291_CEQVLIEK (UniProt Q13616),0.00883,0.0525
CTSZ_Q9UBR2_296_YNLAIEEHCTFGDPIV (UniProt Q9UBR2),0.0178,-0.374
CUL4B_Q13620_297_CWQNHCR (UniProt Q13620),0.0567,0.295
CYTH1_Q15438_323_KPNCFELYIPDNK (UniProt Q15438),0.0705,-0.0122
CYTH2_Q99418_322_KPNCFELYIPNNK (UniProt Q99418),0.19,0.21
CWF19L1_Q69YN2_11_LLACGDVEGK (UniProt Q69YN2),0.171,-0.0951
DAB2IP_Q5VWQ8_487_IINSYCVFPR (UniProt Q5VWQ8),0.0544,0.0417
CWC27_Q6UX04_164_SCEVLFNPFDDIIPR (UniProt Q6UX04),-0.0154,-0.0699
DCAF10_Q5QP82_369_VSGSPCHHSDSNSSEK (UniProt Q5QP82),0.293,-0.489
DCTN1_Q14203_791_DLETSCSDIR (UniProt Q14203),0.0145,0.113
CTSB_P07858_319_ILRGQDHCGIESEVVAGIPR (UniProt P07858),-0.322,-0.501
DBR1_Q9UK59_339+347_VPCNFSVTAACYDPSKPQTQMQLIHR (UniProt Q9UK59),-0.0581,0.0206
CUL4B_Q13620_533_DKVDHIIDICFLK (UniProt Q13620),0.126,0.16
CTR9_Q6PD62_231_CVGALVGLAVLELNNK (UniProt Q6PD62),-0.0196,-0.00394
CUL7_Q14999_1106_LTHLLVHVEPCEAPPPVVATPR (UniProt Q14999),0.0263,2.5e-05
CYC1_P08574_139_HLVGVCYTEDEAK (UniProt P08574),0.183,0.285
CYB5R3_P00387_274_DHLPPPEEEPLVLMCGPPPMIQYACLPNLDHVGHPTER (UniProt P00387),0.0315,-0.0387
CTSG_P08311_207_AAFKGDSGGPLLCNNVAHGIVSYGK (UniProt P08311),-0.115,-0.305
DCTN4_Q9UJW0_70_CANCFDCPGCMHTLSTR (UniProt Q9UJW0),-0.000388,0.0366

Target,probe-labelled cysteine peptide fold change (10 µM),probe-labelled cysteine peptide fold change (50 µM)
DAXX_Q9UER7_106_AHSLFLASAEFCNILSR (UniProt Q9UER7),0.442,1.38
CTSZ_Q9UBR2_214_MMAEIYANGPISCGIMATER (UniProt Q9UBR2),0.337,-0.319
DCTN1_Q14203_636_FELSENCSERPGLR (UniProt Q14203),0.0342,-0.075
DBN1_Q16643_96_CACASHVAK (UniProt Q16643),-0.0355,0.0518
DCAF12L1_Q5VU92_345_QDQQNIRPLCSR (UniProt Q5VU92),0.2,0.0874
CYFIP1_Q7L576_519_TVCDWETGHEPFNDPALRGEK (UniProt Q7L576),-0.00997,0.0425
DCTN4_Q9UJW0_114_AYYLACGFCR (UniProt Q9UJW0),0.00527,0.225
CTPS1_P17812_176_ENFCNIHVSLVPQPSSTGEQK (UniProt P17812),0.174,-0.085
CTSZ_Q9UBR2_92_NQHIPQYCGSCWAHASTSAMADR (UniProt Q9UBR2),0.19,0.0613
CYFIP1_Q7L576_1088_LCCGLSMFEVILTR (UniProt Q7L576),0.0906,0.0519
DARS2_Q6PI48_202_MREYLCNLHGFVDIETPTLFKR (UniProt Q6PI48),-0.272,-0.129
DCTN4_Q9UJW0_280_KCEHNLSKPEFNPTSIK (UniProt Q9UJW0),0.0733,0.103
CTR9_Q6PD62_196_TNPGCPAEVR (UniProt Q6PD62),-0.0355,0.0417
DCAF7_P61962_109_LECLLNNNK (UniProt P61962),0.126,-0.0123
CXXC1_Q9P0U4_181_TEDCGHCDFCR (UniProt Q9P0U4),0.211,0.202
CTNND1_O60716_618_YQEAAPNVANNTGPHAASCFGAK (UniProt O60716),-0.084,-0.137
DCTN5_Q9BTE1_97_GVAFFPLHIGDHVFIEEDCVVNAAQIGSYVHVGK (UniProt Q9BTE1),0.123,0.136
CTSV_O60911_323_NNHCGIATAASYPNV (UniProt O60911),0.147,-0.0722
CTSA_P10619_240_LWSSLQTHCCSQNK (UniProt P10619),0.0876,0.0379

# Some values from the list.
# In probe-labelled cysteine peptide fold change (10 µM), CYFIP1_Q7L576_1088_LCCGLSMFEVILTR (UniProt Q7L576) has 0.0906
# In probe-labelled cysteine peptide fold change (10 µM), CTSZ_Q9UBR2_214_MMAEIYANGPISCGIMATER (UniProt Q9UBR2) has 0.337
# In probe-labelled cysteine peptide fold change (10 µM), CXXC1_Q9P0U4_181_TEDCGHCDFCR (UniProt Q9P0U4) has 0.211
